Data as given in the supplement of paper PMC8728848.
Some of the results follow.

Tests used:
Assay in all cases: glycan array binding signal (z-score within array); higher = stronger binding
Settings in all cases: glycan notation: IUPAC condensed, linker removed
[1] = biological target: Gal(b1-3)GlcNAc(b1-3)Gal(b1-4)GlcNAc(b1-2)[Gal(b1-3)GlcNAc(b1-3)Gal(b1-4)GlcNAc(b1-6)]Man(a1-6)[Gal(b1-3)GlcNAc(b1-3)Gal(b1-4)GlcNAc(b1-2)Man(a1-3)]Man(b1-4)GlcNAc(b1-4)[Fuc(a1-6)]GlcNAc
Method in brief: (§1)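 Glycan array binding is given as a within-array Z-score, which can be read as non-binding when negative. The arrays, 3228 of them, came from the Consortium for Functional Glycomics database and were retained only where the protein sequence was available. Z-scores were averaged across arrays of the same protein sequence at different concentrations or buffers and across linkers.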

[2] = biological target: Gal(b1-3)GlcNAc(b1-3)Gal(b1-4)GlcNAc(b1-3)Gal(b1-4)GlcNAc(b1-2)[Gal(b1-3)GlcNAc(b1-3)Gal(b1-4)GlcNAc(b1-3)Gal(b1-4)GlcNAc(b1-6)]Man(a1-6)[Gal(b1-3)GlcNAc(b1-3)Gal(b1-4)GlcNAc(b1-3)Gal(b1-4)GlcNAc(b1-2)Man(a1-3)]Man(b1-4)GlcNAc(b1-4)[Fuc(a1-6)]GlcNAc
Method in brief: as §1

[3] = biological target: Gal(b1-3)GlcNAc(b1-3)Gal(b1-4)GlcNAc(b1-6)[Gal(b1-3)GlcNAc(b1-3)]Gal(b1-4)Glc
Method in brief: as §1

[4] = biological target: Gal(b1-3)GlcNAc(b1-3)Gal(b1-4)[Fuc(a1-3)]GlcNAc
Method in brief: as §1

[5] = biological target: Gal(b1-3)GlcNAc(b1-3)Gal(b1-4)[Fuc(a1-3)]GlcNAc(b1-6)[Gal(b1-3)GlcNAc(b1-3)]Gal(b1-4)Glc
Method in brief: as §1

[6] = biological target: Gal(b1-3)GlcNAc(b1-3)GalNAc
Method in brief: as §1

[7] = biological target: Gal(b1-3)GlcNAc(b1-6)Gal(b1-4)GlcNAc
Method in brief: as §1

[8] = biological target: Gal(b1-3)GlcNAc(b1-6)GalNAc
Method in brief: as §1

[9] = biological target: Gal(b1-3)GlcNAc(b1-6)[Gal(b1-3)]GalNAc
Method in brief: as §1

Gal(b1-3)GlcNAc6S = biological target: Gal(b1-3)GlcNAc6S
Method in brief: as §1

[10] = biological target: Gal(b1-3)[Fuc(a1-4)]GlcNAc
Method in brief: as §1

[11] = biological target: Gal(b1-3)[Fuc(a1-4)]GlcNAc(b1-2)Man
Method in brief: as §1

[12] = biological target: Gal(b1-3)[Fuc(a1-4)]GlcNAc(b1-2)Man(a1-3)[Gal(b1-3)[Fuc(a1-4)]GlcNAc(b1-2)Man(a1-6)]Man(b1-4)GlcNAc(b1-4)[Fuc(a1-6)]GlcNAc
Method in brief: as §1

[13] = biological target: Gal(b1-3)[Fuc(a1-4)]GlcNAc(b1-3)Gal(b1-3)[Fuc(a1-4)]GlcNAc
Method in brief: as §1

[14] = biological target: Gal(b1-3)[Fuc(a1-4)]GlcNAc(b1-3)Gal(b1-4)[Fuc(a1-3)]GlcNAc
Method in brief: as §1

[15] = biological target: Gal(b1-3)[Fuc(a1-4)]GlcNAc(b1-6)GalNAc
Method in brief: as §1

[16] = biological target: Gal(b1-3)[GlcNAc(b1-6)]GalNAc
Method in brief: as §1

[17] = biological target: Gal(b1-3)[Neu5Ac(a2-6)]GalNAc
Method in brief: as §1

[18] = biological target: Gal(b1-3)[Neu5Ac(a2-6)]GlcNAc(b1-4)Gal(b1-4)Glc
Method in brief: as §1

[19] = biological target: Gal(b1-3)[Neu5Ac(b2-6)]GalNAc
Method in brief: as §1

Gal(b1-4)Gal = biological target: Gal(b1-4)Gal
Method in brief: as §1

[20] = biological target: Gal(b1-4)GalNAc(a1-3)[Fuc(a1-2)]Gal(b1-4)GlcNAc
Method in brief: as §1

[21] = biological target: Gal(b1-4)GalNAc(b1-3)[Fuc(a1-2)]Gal(b1-4)GlcNAc
Method in brief: as §1

Gal(b1-4)Glc = biological target: Gal(b1-4)Glc
Method in brief: as §1

Gal(b1-4)Glc6S = biological target: Gal(b1-4)Glc6S
Method in brief: as §1

Gal(b1-4)GlcNAc = biological target: Gal(b1-4)GlcNAc
Method in brief: as §1

[22] = biological target: Gal(b1-4)GlcNAc(a1-6)Gal(b1-4)GlcNAc
Method in brief: as §1

Gal(b1-4)GlcNAc(b1-2)Man = biological target: Gal(b1-4)GlcNAc(b1-2)Man
Method in brief: as §1

[23] = biological target: Gal(b1-4)GlcNAc(b1-2)Man(a1-3)Man(b1-4)GlcNAc(b1-4)GlcNAc
Method in brief: as §1

[24] = biological target: Gal(b1-4)GlcNAc(b1-2)Man(a1-3)[Gal(b1-4)GlcNAc(b1-2)Man(a1-6)]Man(b1-4)GlcNAc(b1-4)GlcNAc
Method in brief: as §1

[25] = biological target: Gal(b1-4)GlcNAc(b1-2)Man(a1-3)[Gal(b1-4)GlcNAc(b1-2)Man(a1-6)]Man(b1-4)GlcNAc(b1-4)[Fuc(a1-6)]GlcNAc
Method in brief: as §1

[26] = biological target: Gal(b1-4)GlcNAc(b1-2)Man(a1-3)[Gal(b1-4)GlcNAc(b1-2)Man(a1-6)][Gal(b1-4)GlcNAc(b1-4)]Man(b1-4)GlcNAc(b1-4)[Fuc(a1-6)]GlcNAc
Method in brief: as §1

[27] = biological target: Gal(b1-4)GlcNAc(b1-2)Man(a1-3)[Gal(b1-4)GlcNAc(b1-2)Man(a1-6)][GlcNAc(b1-4)]Man(b1-4)GlcNAc(b1-4)[Fuc(a1-6)]GlcNAc
Method in brief: as §1

[28] = biological target: Gal(b1-4)GlcNAc(b1-2)Man(a1-3)[GlcNAc(b1-2)Man(a1-6)]Man(b1-4)GlcNAc(b1-4)GlcNAc
Method in brief: as §1

[29] = biological target: Gal(b1-4)GlcNAc(b1-2)Man(a1-3)[GlcNAc(b1-4)][Gal(b1-4)GlcNAc(b1-2)Man(a1-6)]Man(b1-4)GlcNAc(b1-4)GlcNAc
Method in brief: as §1

[30] = biological target: Gal(b1-4)GlcNAc(b1-2)Man(a1-3)[Man(a1-6)]Man(b1-4)GlcNAc(b1-4)GlcNAc
Method in brief: as §1

[31] = biological target: Gal(b1-4)GlcNAc(b1-2)Man(a1-6)Man(b1-4)GlcNAc(b1-4)GlcNAc
Method in brief: as §1

[32] = biological target: Gal(b1-4)GlcNAc(b1-2)Man(a1-6)[GlcNAc(b1-2)Man(a1-3)]Man(b1-4)GlcNAc(b1-4)GlcNAc
Method in brief: as §1

B1: PX9937I-bfa-538-26-538 (Bacteroides fragilis) (protein)
chain: DKLDLSPIDYYGSGSYWKTEAQATAYIDGIHKHLRDAAWQHTITFGELRGGRFITGASSDGMGVSNGDIILQNFDETHTGVSKFGDLFGRITNLNLFIARVTDATYLSDEMKNFYLGEVYGLRAFYYFDLYRIYGGVPLRLTADVVEGVIDPNKLYMARSTPKEVMTQIKSDLNKSMEYFGNMNDFDPYKRGKKVYWSKAATECLMGEVYLWTSKVTTGDDVANPADLTIAKTHLESVLNNYNLKMLDDFSQVFNAKNKANDEIIFAIRFLEGEATNSNGTFTYNVGTGSTKNRYQANGEVFGDALDIQNTGNQTYEYNKAVYQNFDDADTRKEATFIASYNKDGKTGELSLYGTHVRKNIGYVNAQGARVYCGDYIFYRLPWVYLTLAEIANMEGDNAAVAKYINLVRKRAYGNAWDETLYAYPETADFTTNELAILHEKDKEFIQEGQRWWDLRRMTLTKGGTPLVFCKEGSLLGDAPILNKSTEAHKLLWPIEKTMLNKDPALEQTPGYK
[1]
  glycan array binding signal (z-score): 1.49
[2]
  glycan array binding signal (z-score): 2.69
[3]
  glycan array binding signal (z-score): -0.639
[4]
  glycan array binding signal (z-score): -0.267
[5]
  glycan array binding signal (z-score): -0.436
[6]
  glycan array binding signal (z-score): -0.613
[7]
  glycan array binding signal (z-score): -0.135
[8]
  glycan array binding signal (z-score): 0.517
[9]
  glycan array binding signal (z-score): -0.215
Gal(b1-3)GlcNAc6S
  glycan array binding signal (z-score): -0.639
[10]
  glycan array binding signal (z-score): -0.364
[11]
  glycan array binding signal (z-score): -0.717
[12]
  glycan array binding signal (z-score): 0.049
[13]
  glycan array binding signal (z-score): -0.766
[14]
  glycan array binding signal (z-score): -0.343
[15]
  glycan array binding signal (z-score): 2.39
[16]
  glycan array binding signal (z-score): -0.455
[17]
  glycan array binding signal (z-score): -0.632
[18]
  glycan array binding signal (z-score): -0.487
[19]
  glycan array binding signal (z-score): -0.133
Gal(b1-4)Gal
  glycan array binding signal (z-score): 0.027
[20]
  glycan array binding signal (z-score): -0.705
[21]
  glycan array binding signal (z-score): 0.354
Gal(b1-4)Glc
  glycan array binding signal (z-score): -0.375
Gal(b1-4)Glc6S
  glycan array binding signal (z-score): 0.229
Gal(b1-4)GlcNAc
  glycan array binding signal (z-score): -0.479
[22]
  glycan array binding signal (z-score): -0.725
Gal(b1-4)GlcNAc(b1-2)Man
  glycan array binding signal (z-score): 1.74
[23]
  glycan array binding signal (z-score): -0.029
[24]
  glycan array binding signal (z-score): 2.38
[25]
  glycan array binding signal (z-score): 0.387
[26]
  glycan array binding signal (z-score): 1.11
[27]
  glycan array binding signal (z-score): -1.18
[28]
  glycan array binding signal (z-score): 0.247
[29]
  glycan array binding signal (z-score): -0.423
[30]
  glycan array binding signal (z-score): -0.677
[31]
  glycan array binding signal (z-score): -1.03
[32]
  glycan array binding signal (z-score): -0.37
